From PubChem BioAssay AID342 (DTP/NCI, 2004) come the findings set out here.

The test system of the assay is Swiss mice, Sarcoma 180 sc, mean tumor weight T/C. Description: NCI In Vivo Anticancer Drug Screen. Data for tumor model Sarcoma 180 (subcutaneous) in Swiss mice. As to conditions: T/C endpoint: mean tumor weight, higher T/C = larger tumour; for T/C: evaluated on day 8. The essentials: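 Antitumor activity is assessed in mice with transplantable tumors. Treated (T) and vehicle control (C) groups are compared on survival or tumor size.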

[1] abbreviates: dose: 60.0 mg/kg/injection, schedule: Q01DX007 (ip), vehicle: carboxymethylcellulose (CMC).
Where [2] appears, read: dose: 125.0 mg/kg/injection, schedule: Q01DX007 (ip), vehicle: saline.
The mark [3] stands for this setting: dose: 30.0 mg/kg/injection, schedule: Q#A X014 (ip), vehicle: methylcellulose (MC).

The list shows only some results of the screen, not a fair sample: it gathers tests that were run many times, whatever their T/C, doses with no T/C, and many T/C values between a quarter and a half above the control. Other doses and runs of a compound stand elsewhere. T/C gives the treated animals as a percentage of the vehicle group. Schedules are NCI's codes, taken here to give the interval after Q, in days (D) or hours (H), and the number of doses after X. Some T/C values carry the count of animals alive at the toxicity check (mostly the fifth day); where none is given, no animal had died by that day. Some entries were tested several times; the values are given in rising order. Signs of the kind (2×) say how often a value occurs here. Some schedule codes hold Z or #, which are not explained here. Some doses have a count of surviving animals in place of a T/C: the source holds a T/C of zero for them, seemingly a mark for toxic or unscored doses. Survivors were counted at the toxicity check, usually on the fifth day, unless a day is given; later deaths do not show.

Consider `CN1CC2CC(C1)c1cccc(=O)n1C2` (stereo not given), for which the survivor count (dose: 33.0 mg/kg/injection, schedule: Q01DX007 (ip), vehicle: saline) is 0 of 6; the survivor count (dose: 50.0 mg/kg/injection, schedule: Q01DX007 (ip), vehicle: saline) is listed as 0 of 6; the survivor count (dose: 75.0 mg/kg/injection, schedule: Q01DX007 (ip), vehicle: saline) is given as 0 of 6; the survivor count (dose: 110.0 mg/kg/injection, schedule: Q01DX007 (ip), vehicle: saline) is 0 of 6.
Regarding `CC(=O)OC(C)(C)/C=C/C(=O)[C@](C)(O)[C@H]1[C@H](O)C[C@@]2(C)[C@@H]3CC=C4[C@@H](C[C@H](O)C(=O)C4(C)C)[C@]3(C)C(=O)C[C@]12C`, the survivor count by setting is: (dose: 1.6 mg/kg/injection, schedule: Q01DX007 (ip), vehicle: saline) 1 of 4; (dose: 3.2 mg/kg/injection, schedule: Q01DX007 (ip), vehicle: saline) 0 of 4.
As to `C[C@]12CC[C@H](O)CC1=CC[C@@H]1[C@@H]2CC[C@]2(C)c3nc4ccccc4cc3C[C@@H]12`, the T/C (dose: 31.3 mg/kg/injection, schedule: Q01DX007 (sc), vehicle: saline) was 128 % of control.
As to `O=C1C=CC2(CCC23C=CC(=O)O3)O1` (stereo not given), the survivor count runs as follows: (dose: 65.0 mg/kg/injection, schedule: Q01DX007 (ip), vehicle: saline) 3 of 6; (dose: 95.0 mg/kg/injection, schedule: Q01DX007 (ip), vehicle: saline) 2 of 6; (dose: 145.0 mg/kg/injection, schedule: Q01DX007 (ip), vehicle: saline) 0 of 6.
Take `C[C@H](N)C(=O)N[C@@H]1[C@H]2C(=C(O)C[C@@H](O)[C@@H]2O)C(=O)O[C@@H]1C`: the survivor count (dose: 2000.0 mg/kg/injection, schedule: Q01DX007 (ip), vehicle: carboxymethylcellulose (CMC)) was 1 of 7.
Consider `CN1CC(=O)N=C1N`, for which the survivor count (dose: 2500.0 mg/kg/injection, schedule: Q#A X014 (ip), vehicle: water) is 1 of 6.
For the compound `CCCCCCCCCCCCO[P+](=O)OCCCCCCCCCCCC`, the survivor count reads like this: (dose: 166.5 mg/kg/injection, schedule: Q#A X014 (ip), vehicle: carboxymethylcellulose (CMC)) 3 of 6; (dose: 750.0 mg/kg/injection, schedule: Q01DX007 (ip), vehicle: carboxymethylcellulose (CMC)) 3 of 6.
Regarding `O=CNc1c(Br)cc2c(c1Br)Cc1cc([N+](=O)[O-])ccc1-2`, the survivor count (dose: 26.6 mg/kg/injection, schedule: Q01DX007 (ip), vehicle: carboxymethylcellulose (CMC)) is 3 of 6; the survivor count (dose: 40.0 mg/kg/injection, schedule: Q01DX007 (ip), vehicle: carboxymethylcellulose (CMC)) is 2 of 6; the survivor count under setting [1] was 1 of 6; the survivor count (dose: 90.0 mg/kg/injection, schedule: Q01DX007 (ip), vehicle: carboxymethylcellulose (CMC)) is listed as 0 of 6.
As to `Cn1cnc([N+](=O)[O-])c1Sc1nc(N)nc2nc[nH]c12`, the survivor count is, setting by setting: (dose: 2.0 mg/kg/injection, schedule: Q#A X014 (ip), vehicle: methylcellulose (MC)) 3 of 6; (dose: 5.0 mg/kg/injection, schedule: Q#A X014 (ip), vehicle: methylcellulose (MC)) 3 of 6.
With `COC1C(OC(=O)/C=C/C=C/C=C/C=C/C(=O)O)CCC2(CO2)C1C1(C)OC1CC=C(C)C` (stereo not given), the survivor count by setting is: (dose: 400.0 mg/kg/injection, schedule: Q01DX007 (ip), vehicle: carboxymethylcellulose (CMC)) 0 of 6; (dose: 600.0 mg/kg/injection, schedule: Q01DX007 (ip), vehicle: carboxymethylcellulose (CMC)) 0 of 6.
`CC(=O)OC/N=[N+](/C)[O-]`: the survivor count (dose: 18.75 mg/kg/injection, schedule: Q01DX007 (ip), vehicle: saline) is 0 of 6 and the survivor count (dose: 37.5 mg/kg/injection, schedule: Q01DX007 (ip), vehicle: saline) was 0 of 6.
`Cc1ncc([N+](=O)[O-])n1CCCl`: the survivor count under setting [2] was 3 of 6.
On to `O=C(N/N=C/C=C/c1ccccc1)[C@H](O)[C@@H](O)C(=O)N/N=C/C=C/c1ccccc1`, for which the survivor count (dose: 375.0 mg/kg/injection, schedule: Q#A X014 (ip), vehicle: saline) is 3 of 6.
For `NC(Cc1ccc(N(CCCl)CCCl)cc1)C(=O)O` (stereo not given), the survivor count (dose: 6.5 mg/kg/injection, schedule: Q01DX007 (ip), vehicle: carboxymethylcellulose (CMC)) is 6 of 10.
Regarding `CCSc1nc(Cl)cc(Sc2nc(N)nc3nc[nH]c23)n1`, the T/C (dose: 4.5 mg/kg/injection, schedule: Q01DX007 (ip), vehicle: other) was 125 % of control. For the same compound, the survivor count is, setting by setting: (dose: 144.0 mg/kg/injection, schedule: Q01DX007 (ip), vehicle: other) 3 of 6; (dose: 288.0 mg/kg/injection, schedule: Q01DX007 (ip), vehicle: other) 1 of 6; (dose: 575.0 mg/kg/injection, schedule: Q01DX007 (ip), vehicle: methylcellulose (MC)) 3 of 6.
Consider `O=[As]O`, for which the T/C is 132 % of control (dose: 1.68 mg/kg/injection, schedule: Q01DX007 (ip), vehicle: carboxymethylcellulose (CMC)) and 144 % of control (dose: 6.75 mg/kg/injection, schedule: Q01DX007 (ip), vehicle: carboxymethylcellulose (CMC)). Moreover, the survivor count was 4 of 10 (dose: 13.3 mg/kg/injection, schedule: Q01DX007 (ip), vehicle: carboxymethylcellulose (CMC)) and 5 of 10 (dose: 13.5 mg/kg/injection, schedule: Q01DX007 (ip), vehicle: carboxymethylcellulose (CMC)).
Consider `NC(=O)c1ccccc1Nc1ccc([N+](=O)[O-])cc1[N+](=O)[O-]`, for which the survivor count (dose: 150.0 mg/kg/injection, schedule: Q01DX007 (ip), vehicle: carboxymethylcellulose (CMC)) is reported as 0 of 6 and the survivor count (dose: 300.0 mg/kg/injection, schedule: Q01DX007 (ip), vehicle: carboxymethylcellulose (CMC)) is listed as 0 of 6.
On to `CCCCCCCCCCCCCCCCCCNC(=S)N/N=C/c1ccc(Cl)cc1Cl`, for which the T/C is 45 [5 of 6 alive], 92, 100 % of control under setting [3] and 44 [4 of 6 alive], 45, 58 [5 of 6 alive], 80 % of control (dose: 45.0 mg/kg/injection, schedule: Q#A X014 (ip), vehicle: methylcellulose (MC)). Further, the survivor count reads like this: under setting [3], 2 of 6; (dose: 65.0 mg/kg/injection, schedule: Q#A X014 (ip), vehicle: methylcellulose (MC)) 2 of 6; (dose: 97.5 mg/kg/injection, schedule: Q#A X014 (ip), vehicle: methylcellulose (MC)) 3 of 6.
In the case of `Nc1nc(=S)c2[nH]cnc2[nH]1`, the survivor count (dose: 4.5 mg/kg/injection, schedule: Q01DX007 (ip), vehicle: carboxymethylcellulose (CMC)) was 1 of 7.
For the compound `NCCc1ccccc1`, the survivor count is, setting by setting: under setting [2], 0 of 6; (dose: 250.0 mg/kg/injection, schedule: Q01DX007 (ip), vehicle: saline) 0 of 6.
For `C=CN1CCCC1=O`, the T/C is, setting by setting: (dose: 68.0 mg/kg/injection, schedule: Q01DX007 (ip), vehicle: saline) 132 % of control; (dose: 222.0 mg/kg/injection, schedule: Q01DX007 (ip), vehicle: saline) 43 (2×), 45, 49 [5 of 6 alive], 112 % of control; (dose: 333.0 mg/kg/injection, schedule: Q01DX007 (ip), vehicle: saline) 2 [5 of 6 alive], 31 [5 of 6 alive], 35, 40, 46 % of control. The survivor count is, setting by setting: (dose: 500.0 mg/kg/injection, schedule: Q01DX007 (ip), vehicle: saline) 3 of 6; (dose: 750.0 mg/kg/injection, schedule: Q01DX007 (ip), vehicle: saline) 0 of 6.
For the compound `CC[C@H](c1ccc(O)cc1)[C@@H](CC)c1ccc(O)cc1`, the survivor count (dose: 500.0 mg/kg/injection, schedule: Q01DX007 (sc), vehicle: steroid suspending solution) is listed as 0 of 6.
In the case of `Fc1ccc(NC(=S)Nc2cc(Cl)cc(Cl)c2)cc1`, the survivor count under setting [1] was 1 of 6.
As for `c1ccc2[nH]cnc2c1`, the survivor count (dose: 370.0 mg/kg/injection, schedule: Q01DX007 (ip), vehicle: carboxymethylcellulose (CMC)) was 5 of 10.
As to `CO[C@H]1CC[C@@]2(C)C(=CC[C@H]3[C@@H]4C[C@H](O)C[C@@]4(C)CC[C@@H]32)C1`, where the note is “dose: 10.0 mg/kg/injection, schedule: Q01DX007 (sc), vehicle: steroid suspending solution”, the T/C is 131 % of control.
`COC(=O)CC(C(=O)C=[N+]=[N-])N1C(=O)c2ccccc2C1=O` (stereo not given): the T/C (dose: 3.2 mg/kg/injection, schedule: Q01DX007 (ip), vehicle: carboxymethylcellulose (CMC)) is 138 % of control.
